Laboratory results from ChEMBL document CHEMBL4316593 (Eur J Med Chem, 2019).
This continues a long series; more values of the same kind are listed elsewhere.

Tests used:
Type in all cases: cell-based
Conditions in all cases: U-87MG ATCC
[1] = Inhibition of RTK/PI3K/AKT/mTOR signaling in human U87 cells assessed as down regulation of TSPAN12 gene expression at cytotoxic IC50 measured after 48 hrs relative to control
[2] = Inhibition of RTK/PI3K/AKT/mTOR signaling in human U87 cells assessed as up regulation of prothymosin, alpha gene expression at cytotoxic IC50 measured after 48 hrs relative to control
[3] = Inhibition of RTK/PI3K/AKT/mTOR signaling in human U87 cells assessed as up regulation of integrin subunit beta 4 gene expression at cytotoxic IC50 measured after 48 hrs relative to control
[4] = Inhibition of RTK/PI3K/AKT/mTOR signaling in human U87 cells assessed as down regulation of ID3 gene expression at cytotoxic IC50 measured after 48 hrs relative to control
[5] = Inhibition of RTK/PI3K/AKT/mTOR signaling in human U87 cells assessed as down regulation of OTUD6B gene expression at cytotoxic IC50 measured after 48 hrs relative to control
[6] = Inhibition of RTK/PI3K/AKT/mTOR signaling in human U87 cells assessed as down regulation of SMCO4 gene expression at cytotoxic IC50 measured after 48 hrs relative to control
[7] = Inhibition of RTK/PI3K/AKT/mTOR signaling in human U87 cells assessed as down regulation of MCM9 gene expression at cytotoxic IC50 measured after 48 hrs relative to control
[8] = Inhibition of RTK/PI3K/AKT/mTOR signaling in human U87 cells assessed as down regulation of GYG1 gene expression at cytotoxic IC50 measured after 48 hrs relative to control
[9] = Inhibition of RTK/PI3K/AKT/mTOR signaling in human U87 cells assessed as down regulation of NAP1L5 gene expression at cytotoxic IC50 measured after 48 hrs relative to control
[10] = Inhibition of RTK/PI3K/AKT/mTOR signaling in human U87 cells assessed as up regulation of fibroblast growth factor receptor 2 gene expression at cytotoxic IC50 measured after 48 hrs relative to control
[11] = Inhibition of RTK/PI3K/AKT/mTOR signaling in human U87 cells assessed as down regulation of MOCS1 gene expression at cytotoxic IC50 measured after 48 hrs relative to control
[12] = Inhibition of RTK/PI3K/AKT/mTOR signaling in human U87 cells assessed as down regulation of TIMP2 gene expression at cytotoxic IC50 measured after 48 hrs relative to control
[13] = Inhibition of RTK/PI3K/AKT/mTOR signaling in human U87 cells assessed as up regulation of cartilage intermediate layer protein 2 gene expression at cytotoxic IC50 measured after 48 hrs relative to control
[14] = Inhibition of RTK/PI3K/AKT/mTOR signaling in human U87 cells assessed as down regulation of CEP295 gene expression at cytotoxic IC50 measured after 48 hrs relative to control
[15] = Inhibition of RTK/PI3K/AKT/mTOR signaling in human U87 cells assessed as up regulation of ZNF467 gene expression at cytotoxic IC50 measured after 48 hrs relative to control
[16] = Inhibition of RTK/PI3K/AKT/mTOR signaling in human U87 cells assessed as down regulation of SLC9A1 gene expression at cytotoxic IC50 measured after 48 hrs relative to control
[17] = Inhibition of RTK/PI3K/AKT/mTOR signaling in human U87 cells assessed as down regulation of PPP2CA gene expression at cytotoxic IC50 measured after 48 hrs relative to control
[18] = Inhibition of RTK/PI3K/AKT/mTOR signaling in human U87 cells assessed as down regulation of ZNF703 gene expression at cytotoxic IC50 measured after 48 hrs relative to control
[19] = Inhibition of RTK/PI3K/AKT/mTOR signaling in human U87 cells assessed as down regulation of PDE5A gene expression at cytotoxic IC50 measured after 48 hrs relative to control
[20] = Inhibition of RTK/PI3K/AKT/mTOR signaling in human U87 cells assessed as down regulation of EGR2 gene expression at cytotoxic IC50 measured after 48 hrs relative to control
[21] = Inhibition of RTK/PI3K/AKT/mTOR signaling in human U87 cells assessed as up regulation of integrin subunit alpha 5 gene expression at cytotoxic IC50 measured after 48 hrs relative to control
[22] = Inhibition of RTK/PI3K/AKT/mTOR signaling in human U87 cells assessed as down regulation of ERCC6 gene expression at cytotoxic IC50 measured after 48 hrs relative to control
[23] = Inhibition of RTK/PI3K/AKT/mTOR signaling in human U87 cells assessed as up regulation of CNOT2 gene expression at cytotoxic IC50 measured after 48 hrs relative to control
[24] = Inhibition of RTK/PI3K/AKT/mTOR signaling in human U87 cells assessed as down regulation of UBE3B gene expression at cytotoxic IC50 measured after 48 hrs relative to control
[25] = Inhibition of RTK/PI3K/AKT/mTOR signaling in human U87 cells assessed as down regulation of VRK3 gene expression at cytotoxic IC50 measured after 48 hrs relative to control
[26] = Inhibition of RTK/PI3K/AKT/mTOR signaling in human U87 cells assessed as up regulation of family with sequence similarity 13 member A gene expression at cytotoxic IC50 measured after 48 hrs relative to control
[27] = Inhibition of RTK/PI3K/AKT/mTOR signaling in human U87 cells assessed as up regulation of LINC01405 gene expression at cytotoxic IC50 measured after 48 hrs relative to control
[28] = Inhibition of RTK/PI3K/AKT/mTOR signaling in human U87 cells assessed as up regulation of cytochrome b-245 alpha chain gene expression at cytotoxic IC50 measured after 48 hrs relative to control
[29] = Inhibition of RTK/PI3K/AKT/mTOR signaling in human U87 cells assessed as down regulation of E2F7 gene expression at cytotoxic IC50 measured after 48 hrs relative to control
[30] = Inhibition of RTK/PI3K/AKT/mTOR signaling in human U87 cells assessed as down regulation of ZNF697 gene expression at cytotoxic IC50 measured after 48 hrs relative to control
[31] = Inhibition of RTK/PI3K/AKT/mTOR signaling in human U87 cells assessed as down regulation of ANKRD13C gene expression at cytotoxic IC50 measured after 48 hrs relative to control
[32] = Inhibition of RTK/PI3K/AKT/mTOR signaling in human U87 cells assessed as up regulation of HLF gene expression at cytotoxic IC50 measured after 48 hrs relative to control

What does the source list for `CC(=O)C(=NNc1ccccc1C#N)C(C)=O`?
log2FC [1]: -1.41; log2FC [2]: 0.732; log2FC [3]: 1.38; log2FC [4]: -1.13; log2FC [5]: -0.833; log2FC [6]: -1.39; log2FC [7]: -0.96; log2FC [8]: -0.591; log2FC [9]: -2.21; log2FC [10]: 0.926; log2FC [11]: -0.992; log2FC [12]: -0.387; log2FC [13]: 0.861; log2FC [14]: -0.821; log2FC [15]: 2.59; log2FC [16]: -0.801; log2FC [17]: -0.401; log2FC [18]: -2.02; log2FC [19]: -1.46; log2FC [20]: -1.36; log2FC [21]: 0.936; log2FC [22]: -1.18; log2FC [23]: 0.602; log2FC [24]: -0.531; log2FC [25]: -0.891; log2FC [26]: 1.23; log2FC [27]: 1.92; log2FC [28]: 0.815; log2FC [29]: -1.26; log2FC [30]: -3.09; log2FC [31]: -0.602; log2FC [32]: 2.11
